The list shows a part of the results.
compound: C/C(=N\NC(=O)C1=CC(=CC=C1)S(=O)(=O)N2CCOCC2)/C3=C(C=CC(=C3)Cl)O; test: log2 fold change, soluble protein after heating vs DMSO (PISA); higher = thermal stabilisation; K562 cells, 10 uM, 30 min; active = over 0.2 and 3.5 SD of the protein, either way, in both replicates (recomputed)
In short: (§1)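 For each measurement, 10 μM compound was applied for 30 min to K562 cells at 2×10^6 cells/mL. Aliquots were heated for 3 min across 48°C-58°C, pooled, and extracted in PBS with 0.5% NP-40 at 4°C; the supernatant after 21,000xg for 90 min was soluble protein. This was quantified by TMTpro 16plex LC-MS/MS with channel sums equalised, and thermal stability was reported relative to control samples from duplicates, on a log2 fold-change scale.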

By UniProt entry, the sequences of proteins in these tests, tags left out. Where a name states a change or a piece, a line headed by the entry shows the natural chain unless it says otherwise.
UniProt Q8IZN3: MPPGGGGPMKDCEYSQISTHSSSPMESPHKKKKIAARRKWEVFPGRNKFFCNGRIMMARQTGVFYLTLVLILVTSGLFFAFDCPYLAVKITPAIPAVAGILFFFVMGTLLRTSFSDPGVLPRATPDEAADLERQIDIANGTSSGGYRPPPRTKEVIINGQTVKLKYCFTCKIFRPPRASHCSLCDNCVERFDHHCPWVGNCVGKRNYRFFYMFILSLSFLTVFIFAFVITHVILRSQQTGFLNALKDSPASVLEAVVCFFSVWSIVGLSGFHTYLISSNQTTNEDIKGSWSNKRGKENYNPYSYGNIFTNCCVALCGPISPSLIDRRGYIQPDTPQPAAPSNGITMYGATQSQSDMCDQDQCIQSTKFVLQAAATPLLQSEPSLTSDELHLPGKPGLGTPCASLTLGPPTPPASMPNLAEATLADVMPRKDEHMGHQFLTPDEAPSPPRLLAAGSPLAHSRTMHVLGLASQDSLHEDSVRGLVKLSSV
UniProt Q9BSR8: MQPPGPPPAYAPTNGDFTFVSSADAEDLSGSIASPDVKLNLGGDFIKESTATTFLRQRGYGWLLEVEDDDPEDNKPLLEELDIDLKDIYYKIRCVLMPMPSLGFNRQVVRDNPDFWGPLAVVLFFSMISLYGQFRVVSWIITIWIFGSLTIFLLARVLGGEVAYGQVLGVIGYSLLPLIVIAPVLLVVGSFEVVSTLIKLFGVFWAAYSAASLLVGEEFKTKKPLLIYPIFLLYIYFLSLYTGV
UniProt O43298: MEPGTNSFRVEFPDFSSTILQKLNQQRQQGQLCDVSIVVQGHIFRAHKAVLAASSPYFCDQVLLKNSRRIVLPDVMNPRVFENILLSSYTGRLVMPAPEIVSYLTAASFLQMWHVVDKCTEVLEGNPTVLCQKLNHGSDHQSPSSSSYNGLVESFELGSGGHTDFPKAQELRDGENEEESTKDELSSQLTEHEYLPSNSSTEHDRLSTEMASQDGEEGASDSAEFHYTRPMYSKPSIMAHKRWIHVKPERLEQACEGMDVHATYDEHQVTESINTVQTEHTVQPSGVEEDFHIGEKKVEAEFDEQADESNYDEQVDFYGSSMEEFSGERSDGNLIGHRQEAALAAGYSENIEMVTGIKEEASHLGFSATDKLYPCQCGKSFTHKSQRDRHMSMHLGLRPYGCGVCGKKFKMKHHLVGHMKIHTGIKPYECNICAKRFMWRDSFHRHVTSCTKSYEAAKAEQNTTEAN
UniProt Q7Z7L7: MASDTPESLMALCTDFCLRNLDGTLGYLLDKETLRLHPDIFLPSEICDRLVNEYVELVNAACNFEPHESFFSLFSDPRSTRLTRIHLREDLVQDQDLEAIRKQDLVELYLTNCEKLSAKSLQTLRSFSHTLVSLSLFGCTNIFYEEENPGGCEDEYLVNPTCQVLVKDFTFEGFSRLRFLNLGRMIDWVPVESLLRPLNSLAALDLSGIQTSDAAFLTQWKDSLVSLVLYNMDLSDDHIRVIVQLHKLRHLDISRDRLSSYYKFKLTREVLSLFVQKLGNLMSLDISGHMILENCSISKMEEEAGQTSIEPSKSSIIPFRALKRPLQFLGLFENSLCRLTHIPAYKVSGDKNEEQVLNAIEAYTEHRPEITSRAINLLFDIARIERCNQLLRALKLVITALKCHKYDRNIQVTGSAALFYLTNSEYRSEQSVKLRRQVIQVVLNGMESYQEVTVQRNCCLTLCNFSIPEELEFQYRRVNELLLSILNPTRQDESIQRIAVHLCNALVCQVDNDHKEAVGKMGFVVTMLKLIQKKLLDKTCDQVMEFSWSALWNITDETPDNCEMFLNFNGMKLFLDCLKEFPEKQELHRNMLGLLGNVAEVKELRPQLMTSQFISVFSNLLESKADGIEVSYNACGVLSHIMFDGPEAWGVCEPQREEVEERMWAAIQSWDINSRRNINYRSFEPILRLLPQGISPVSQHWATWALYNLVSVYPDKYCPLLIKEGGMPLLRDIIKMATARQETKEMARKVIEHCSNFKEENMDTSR
UniProt P25490, whole entry, looked up: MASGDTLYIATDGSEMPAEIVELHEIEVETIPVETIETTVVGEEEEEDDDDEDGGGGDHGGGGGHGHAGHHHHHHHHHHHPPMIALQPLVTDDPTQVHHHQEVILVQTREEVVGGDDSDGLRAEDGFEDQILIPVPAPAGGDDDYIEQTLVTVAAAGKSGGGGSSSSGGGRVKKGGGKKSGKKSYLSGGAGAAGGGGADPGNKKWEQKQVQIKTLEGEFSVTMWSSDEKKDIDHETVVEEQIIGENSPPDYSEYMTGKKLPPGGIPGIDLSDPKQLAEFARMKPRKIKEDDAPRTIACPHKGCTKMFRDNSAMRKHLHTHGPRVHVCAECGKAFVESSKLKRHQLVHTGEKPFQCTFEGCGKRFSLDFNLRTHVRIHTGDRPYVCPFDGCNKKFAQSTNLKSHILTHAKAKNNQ
UniProt Q96K21: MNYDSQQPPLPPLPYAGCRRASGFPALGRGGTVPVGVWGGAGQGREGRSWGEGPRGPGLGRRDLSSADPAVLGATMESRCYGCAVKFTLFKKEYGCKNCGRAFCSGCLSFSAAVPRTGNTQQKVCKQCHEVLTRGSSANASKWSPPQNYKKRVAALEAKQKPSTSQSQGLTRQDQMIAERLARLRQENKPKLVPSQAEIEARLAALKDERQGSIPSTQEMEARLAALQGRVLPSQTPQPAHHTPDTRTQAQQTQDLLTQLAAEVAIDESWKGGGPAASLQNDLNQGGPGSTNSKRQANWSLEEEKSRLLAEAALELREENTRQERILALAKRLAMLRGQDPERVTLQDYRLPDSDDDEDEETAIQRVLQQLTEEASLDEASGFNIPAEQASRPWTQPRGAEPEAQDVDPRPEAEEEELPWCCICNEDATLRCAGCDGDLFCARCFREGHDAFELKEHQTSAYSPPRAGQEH
UniProt Q8IUH5: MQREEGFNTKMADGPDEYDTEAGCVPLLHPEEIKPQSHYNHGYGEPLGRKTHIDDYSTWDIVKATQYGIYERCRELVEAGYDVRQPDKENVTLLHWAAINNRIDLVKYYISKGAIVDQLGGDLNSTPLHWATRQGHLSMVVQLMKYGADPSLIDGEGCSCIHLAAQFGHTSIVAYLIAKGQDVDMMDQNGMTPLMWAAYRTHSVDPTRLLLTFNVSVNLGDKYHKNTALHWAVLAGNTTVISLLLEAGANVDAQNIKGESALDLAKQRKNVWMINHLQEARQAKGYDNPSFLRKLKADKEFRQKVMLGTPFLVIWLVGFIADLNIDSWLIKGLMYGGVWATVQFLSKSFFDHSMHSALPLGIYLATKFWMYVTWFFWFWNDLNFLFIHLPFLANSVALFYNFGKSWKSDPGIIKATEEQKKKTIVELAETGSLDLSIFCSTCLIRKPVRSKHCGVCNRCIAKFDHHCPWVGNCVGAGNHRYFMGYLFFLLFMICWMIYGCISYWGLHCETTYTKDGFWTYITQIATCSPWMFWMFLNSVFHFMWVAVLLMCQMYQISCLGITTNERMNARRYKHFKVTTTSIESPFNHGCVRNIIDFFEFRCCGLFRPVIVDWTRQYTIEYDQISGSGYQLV
UniProt Q16600: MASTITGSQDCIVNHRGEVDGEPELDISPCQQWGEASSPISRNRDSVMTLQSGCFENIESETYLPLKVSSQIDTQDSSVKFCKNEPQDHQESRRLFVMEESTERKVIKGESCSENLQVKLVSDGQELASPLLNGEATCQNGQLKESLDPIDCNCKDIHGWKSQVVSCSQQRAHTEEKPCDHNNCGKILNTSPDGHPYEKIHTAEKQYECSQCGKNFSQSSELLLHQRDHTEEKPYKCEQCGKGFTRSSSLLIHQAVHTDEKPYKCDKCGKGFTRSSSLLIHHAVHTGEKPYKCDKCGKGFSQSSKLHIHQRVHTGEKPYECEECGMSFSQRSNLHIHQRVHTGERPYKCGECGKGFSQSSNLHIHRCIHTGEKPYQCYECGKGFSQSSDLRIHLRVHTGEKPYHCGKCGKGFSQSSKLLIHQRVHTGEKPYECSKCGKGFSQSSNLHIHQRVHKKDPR
UniProt P63104: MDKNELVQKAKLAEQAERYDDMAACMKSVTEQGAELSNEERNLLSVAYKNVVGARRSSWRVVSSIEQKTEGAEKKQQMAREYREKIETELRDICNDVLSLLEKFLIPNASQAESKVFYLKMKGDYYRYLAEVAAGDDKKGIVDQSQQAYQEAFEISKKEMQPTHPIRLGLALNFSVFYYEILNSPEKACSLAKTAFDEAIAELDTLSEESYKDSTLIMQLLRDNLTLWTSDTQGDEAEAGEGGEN
UniProt Q9NUD5: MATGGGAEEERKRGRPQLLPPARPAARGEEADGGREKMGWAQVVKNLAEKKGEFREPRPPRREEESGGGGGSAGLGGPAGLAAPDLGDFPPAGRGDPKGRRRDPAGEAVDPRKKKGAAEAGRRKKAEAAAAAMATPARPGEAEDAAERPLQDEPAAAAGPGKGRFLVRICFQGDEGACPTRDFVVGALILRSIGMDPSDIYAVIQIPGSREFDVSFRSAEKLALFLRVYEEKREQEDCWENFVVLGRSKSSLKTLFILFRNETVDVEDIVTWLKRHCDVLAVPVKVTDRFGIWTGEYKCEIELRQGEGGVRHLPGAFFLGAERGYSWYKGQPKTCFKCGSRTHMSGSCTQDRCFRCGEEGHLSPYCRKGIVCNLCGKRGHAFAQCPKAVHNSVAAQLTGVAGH
UniProt O14980, whole entry, looked up: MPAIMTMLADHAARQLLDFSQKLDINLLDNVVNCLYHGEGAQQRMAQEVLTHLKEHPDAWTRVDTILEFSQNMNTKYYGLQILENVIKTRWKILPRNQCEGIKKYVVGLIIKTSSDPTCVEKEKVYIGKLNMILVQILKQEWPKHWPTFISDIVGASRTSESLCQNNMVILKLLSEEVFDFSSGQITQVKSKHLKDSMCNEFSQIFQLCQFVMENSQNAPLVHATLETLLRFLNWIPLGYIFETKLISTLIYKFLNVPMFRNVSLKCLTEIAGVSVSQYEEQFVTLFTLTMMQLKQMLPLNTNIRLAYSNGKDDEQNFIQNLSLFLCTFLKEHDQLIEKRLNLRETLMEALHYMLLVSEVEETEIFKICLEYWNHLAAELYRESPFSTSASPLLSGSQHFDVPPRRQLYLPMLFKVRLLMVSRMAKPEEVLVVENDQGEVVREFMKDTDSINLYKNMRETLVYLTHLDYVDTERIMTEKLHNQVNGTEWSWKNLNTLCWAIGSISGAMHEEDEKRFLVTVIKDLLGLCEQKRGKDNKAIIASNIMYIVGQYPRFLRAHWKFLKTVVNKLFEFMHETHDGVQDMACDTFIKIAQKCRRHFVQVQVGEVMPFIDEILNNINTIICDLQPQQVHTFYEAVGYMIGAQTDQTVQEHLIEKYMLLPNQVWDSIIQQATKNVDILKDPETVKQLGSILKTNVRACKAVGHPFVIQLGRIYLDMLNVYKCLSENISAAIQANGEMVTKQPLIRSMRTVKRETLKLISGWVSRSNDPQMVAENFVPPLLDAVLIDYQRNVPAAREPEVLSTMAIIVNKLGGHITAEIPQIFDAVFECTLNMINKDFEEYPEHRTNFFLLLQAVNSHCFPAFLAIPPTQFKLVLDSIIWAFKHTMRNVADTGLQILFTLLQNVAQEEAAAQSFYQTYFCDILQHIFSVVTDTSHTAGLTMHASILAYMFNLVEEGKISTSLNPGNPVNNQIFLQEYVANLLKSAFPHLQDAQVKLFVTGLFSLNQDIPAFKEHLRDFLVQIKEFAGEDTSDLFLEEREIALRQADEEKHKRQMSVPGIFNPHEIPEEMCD
UniProt Q86WB0: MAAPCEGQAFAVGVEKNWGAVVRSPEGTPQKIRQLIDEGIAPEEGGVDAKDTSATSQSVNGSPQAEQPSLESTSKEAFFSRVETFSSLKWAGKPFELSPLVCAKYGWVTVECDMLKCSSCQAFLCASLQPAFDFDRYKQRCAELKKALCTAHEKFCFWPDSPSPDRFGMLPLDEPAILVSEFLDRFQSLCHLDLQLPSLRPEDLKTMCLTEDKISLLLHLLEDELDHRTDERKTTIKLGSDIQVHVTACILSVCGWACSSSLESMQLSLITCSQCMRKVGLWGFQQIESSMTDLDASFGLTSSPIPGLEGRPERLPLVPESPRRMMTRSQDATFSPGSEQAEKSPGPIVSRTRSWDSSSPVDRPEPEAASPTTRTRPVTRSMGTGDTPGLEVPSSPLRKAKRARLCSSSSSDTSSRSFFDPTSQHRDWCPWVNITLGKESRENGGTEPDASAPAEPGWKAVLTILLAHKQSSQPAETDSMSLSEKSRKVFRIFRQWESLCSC
UniProt Q8NBI6: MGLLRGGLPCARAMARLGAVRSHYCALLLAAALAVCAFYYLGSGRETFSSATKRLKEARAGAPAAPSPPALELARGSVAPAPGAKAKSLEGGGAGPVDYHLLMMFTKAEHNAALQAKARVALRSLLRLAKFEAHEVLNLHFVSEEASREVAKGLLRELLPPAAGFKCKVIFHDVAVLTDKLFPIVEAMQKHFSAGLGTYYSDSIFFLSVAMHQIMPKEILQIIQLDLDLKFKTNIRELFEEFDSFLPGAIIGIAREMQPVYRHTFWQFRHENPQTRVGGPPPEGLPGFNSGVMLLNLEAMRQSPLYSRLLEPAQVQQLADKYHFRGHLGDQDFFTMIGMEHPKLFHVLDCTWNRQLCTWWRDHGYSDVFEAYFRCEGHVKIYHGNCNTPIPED

log2 fold change, inactive:
ZDHHC14 (UniProt Q8IZN3) 0.051, ZC3H18 (UniProt Q86VM9) 0.01, ZC3H8 (UniProt Q8N5P1) -0.128, YIPF4 (UniProt Q9BSR8) -0.06, YDJC (UniProt A8MPS7) 0.065, ZMPSTE24 (UniProt O75844) 0.004, ZFYVE27 isoform 2 (UniProt Q5T4F4) 0.046, ZBTB43 (UniProt O43298) 0.02, ZMIZ2 (UniProt Q8NF64) -0.125, ZDHHC18 (UniProt Q9NUE0) 0.033, ZER1 (UniProt Q7Z7L7) 0.019, YY1 (UniProt P25490) 0.072, YWHAE (UniProt P62258) -0.023, YES1 (UniProt P07947) 0.072, ZBTB8OS (UniProt Q8IWT0) 0.034, YJU2 (UniProt Q9BW85) 0, YLPM1 (UniProt P49750) 0.03, YBX3 (UniProt P16989) -0.125, ZFYVE19 (UniProt Q96K21) 0.013, YARS2 (UniProt Q9Y2Z4) 0.006, XPO5 (UniProt Q9HAV4) 0.103, ZDHHC17 (UniProt Q8IUH5) -0.004, ZC3H14 (UniProt Q6PJT7) 0.092, YKT6 (UniProt O15498) 0.003, ZDHHC5 (UniProt Q9C0B5) 0.003, ZNF239 (UniProt Q16600) 0.019, ZC3H15 (UniProt Q8WU90) -0.021, YAE1 (UniProt Q9NRH1) -0.051, ZNF24 (UniProt P17028) -0.009, ZFAND6 (UniProt Q6FIF0) -0.075, ZC2HC1A (UniProt Q96GY0) -0.075, YWHAZ (UniProt P63104) 0.061, ZCCHC3 (UniProt Q9NUD5) -0.019, XPO1 (UniProt O14980) 0.118, YEATS4 (UniProt O95619) 0.002, ZC3HC1 (UniProt Q86WB0) 0.199, XXYLT1 (UniProt Q8NBI6) -0.022, ZDHHC3 isoform 2 (UniProt Q9NYG2) 0.049, ZBTB21 (UniProt Q9ULJ3) 0.068

compound: C1=CC(=C(C=C1Cl)C2=NC3=NC=CN=C3C(=N2)NC4=CC=NC=C4)F; test: as above
In short: as §1

log2 fold change, inactive:
ZDHHC14 (UniProt Q8IZN3) 0.025, ZC3H18 (UniProt Q86VM9) -0.134, ZC3H8 (UniProt Q8N5P1) -0.275, YIPF4 (UniProt Q9BSR8) -0.014, YDJC (UniProt A8MPS7) 0.009, ZMPSTE24 (UniProt O75844) 0.051, ZFYVE27 isoform 2 (UniProt Q5T4F4) -0.035, ZBTB43 (UniProt O43298) -0.194, ZMIZ2 (UniProt Q8NF64) -0.05, ZDHHC18 (UniProt Q9NUE0) 0.07, ZER1 (UniProt Q7Z7L7) -0.022, YY1 (UniProt P25490) 0.073, YWHAE (UniProt P62258) 0.047, YES1 (UniProt P07947) -0.179, ZBTB8OS (UniProt Q8IWT0) 0.067, YJU2 (UniProt Q9BW85) 0.098, YLPM1 (UniProt P49750) 0.057, YBX3 (UniProt P16989) -0.327, ZFYVE19 (UniProt Q96K21) -0.017, YARS2 (UniProt Q9Y2Z4) 0.156, XPO5 (UniProt Q9HAV4) 0.105, ZDHHC17 (UniProt Q8IUH5) -0.006, ZC3H14 (UniProt Q6PJT7) -0.031, YKT6 (UniProt O15498) 0.054, ZDHHC5 (UniProt Q9C0B5) -0.002, ZNF239 (UniProt Q16600) -0.333, ZC3H15 (UniProt Q8WU90) -0.094, YAE1 (UniProt Q9NRH1) 0.007, ZNF24 (UniProt P17028) -0.345, ZFAND6 (UniProt Q6FIF0) -0.05, ZC2HC1A (UniProt Q96GY0) -0.013, YWHAZ (UniProt P63104) 0.081, ZCCHC3 (UniProt Q9NUD5) -0.303, XPO1 (UniProt O14980) 0.045, YEATS4 (UniProt O95619) -0.041, ZC3HC1 (UniProt Q86WB0) 0.128, XXYLT1 (UniProt Q8NBI6) 0.022, ZDHHC3 isoform 2 (UniProt Q9NYG2) 0.074, ZBTB21 (UniProt Q9ULJ3) -0.022
